This is one part of the list. The data scatter; read single values as rough.
Tests used:
[1] = compound: ClCC(=O)N[C@@H]1CCCc2ccccc12; assay: log2 mean competition ratio of IA-DTB cysteine labelling (DMSO/compound) (log2 ratio); higher = stronger cysteine engagement by compound; details: treatment time: 4 h, cell line lysate: HEK293T
Description: (§1)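 IA-DTB competitive cysteine chemoproteomics in HEK293T RIPA lysate. Lysates were treated with compound 29 or 30 at 50 or 200 µM for 4 h, then IA-DTB (500 µM, 1 h), trypsin-digested, NeutrAvidin-enriched and analysed by diaPASEF. Competition ratio = intensity DMSO / intensity compound (n=4 treated, n=64 DMSO); binding: mean log2 CR ≥ 1 and p ≤ 0.05 plus QC filters. Target is the cysteine site.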

[2] = compound: ClCC(=O)N[C@H]1CCCc2ccccc12; assay: as above; details: treatment time: 4 h, cell line lysate: HEK293T
Description: as §1

Row | Target | log2 mean competition ratio ([1]; 50 µM) | log2 mean competition ratio ([1]; 200 µM) | log2 mean competition ratio ([2]; 50 µM) | log2 mean competition ratio ([2]; 200 µM)
1 | DENND4C C1113 (UniProt Q5VZ89) | 0.203 | 0.00227 | -0.464 | 0.107
2 | DIAPH3 C558 (UniProt Q9NSV4) | -0.0828 | -0.0953 | 0.18 | 0.15
3 | DNAAF5 C173 (UniProt Q86Y56) | -0.0825 | -0.346 | -0.118 | -0.0159
4 | DLGAP5 C448 (UniProt Q15398) | 0.472 | 0.182 | 0.512 | 0.18
5 | DIP2B C592 (UniProt Q9P265) | 0.212 | -0.138 | -0.0297 | -0.0649
6 | DHX15 C226 (UniProt O43143) | -0.28 | 0.0437 | -0.0884 | 0.0762
7 | DMXL1 C2618 (UniProt Q9Y485) | 0.0144 | 0.114 | -0.0857 | 0.24
8 | DOLK C99 (UniProt Q9UPQ8) | -0.15 | -0.242 | -0.205 | -0.109
9 | DNAJC11 C518 (UniProt Q9NVH1) | -0.0176 | -0.105 | -0.245 | -0.0854
10 | DENND4A C937 (UniProt Q7Z401) | 0.0121 | 0.316 | -0.0166 | 0.151
11 | DOCK9 C628 (UniProt Q9BZ29) | -0.353 | 0.542 | -0.629 | 0.242
12 | DNM1 C169 (UniProt Q05193) | 0.0569 | -0.00241 | 0.415 | 0.167
13 | DIMT1 C84 (UniProt Q9UNQ2) | -0.178 | -0.179 | -0.0134 | 0.00966
14 | DENND4A C812 (UniProt Q7Z401) | -0.167 | 0.262 | -0.123 | 0.0838
15 | DHX9 C469 (UniProt Q08211) | -0.0832 | -0.117 | 0.272 | 0.0458
16 | DNAJC13 C149 (UniProt O75165) | 0.106 | -0.0805 | 0.189 | -0.0114
17 | DHRS1 C10 (UniProt Q96LJ7) | -0.325 | 0.175 | 0.301 | 0.124
18 | DNAJC14 C52 (UniProt Q6Y2X3) | -0.0999 | -0.107 | -0.0398 | -0.0336
19 | DICER1 C214 (UniProt Q9UPY3) | -0.0417 | -0.246 | -0.409 | -0.0569
20 | DHX36 C640 (UniProt Q9H2U1) | -0.0597 | -0.277 | -0.311 | -0.196
21 | DENR C132 (UniProt O43583) | 0.44 | 0.213 | -0.139 | -0.0719
22 | DLGAP4 C736 (UniProt Q9Y2H0) | 0.0221 | 0.376 | -0.119 | 0.409

Rewritten as a markdown table: part of the list above.

| Row | Target | log2 mean competition ratio ([1]; 50 µM) | log2 mean competition ratio ([1]; 200 µM) | log2 mean competition ratio ([2]; 50 µM) | log2 mean competition ratio ([2]; 200 µM) |
| --- | --- | --- | --- | --- | --- |
| 9 | DNAJC11 C518 (UniProt Q9NVH1) | -0.0176 | -0.105 | -0.245 | -0.0854 |
| 13 | DIMT1 C84 (UniProt Q9UNQ2) | -0.178 | -0.179 | -0.0134 | 0.00966 |
| 17 | DHRS1 C10 (UniProt Q96LJ7) | -0.325 | 0.175 | 0.301 | 0.124 |

The list continues:

Row | Target | log2 mean competition ratio ([1]; 50 µM) | log2 mean competition ratio ([1]; 200 µM) | log2 mean competition ratio ([2]; 50 µM) | log2 mean competition ratio ([2]; 200 µM)
23 | DNA2 C569 (UniProt P51530) | -0.223 | -0.25 | -0.107 | 0.0193
24 | DENND5B C733 (UniProt Q6ZUT9) | 0.0954 | 1.39 | 0.107 | 0.932
25 | DLGAP5 C592 (UniProt Q15398) | -0.439 | -0.357 | -0.176 | -0.244
26 | DFFB C316 (UniProt O76075) | -0.105 | -0.0671 | -0.38 | -0.306
27 | DNAJA1 C302 (UniProt P31689) | -0.204 | -0.231 | -0.195 | -0.0279
28 | DIXDC1 C217 | -0.046 | -0.164 | -0.0635 | -0.155
29 | DICER1 C1197 (UniProt Q9UPY3) | 0.383 | 0.0912 | 0.717 | 0.128
30 | DFFA C165 (UniProt O00273) | -0.123 | 0.0664 | -0.00289 | 0.0362
31 | DNAJC13 C2082 (UniProt O75165) | 0.178 | 0.202 | 0.147 | 0.231
32 | DGCR8 C91 (UniProt Q8WYQ5) | -0.00641 | 0.363 | -0.315 | 0.198
33 | DIPK2A C236 (UniProt Q8NDZ4) | -0.154 | 0.288 | -0.121 | 0.139
34 | DNMBP C125 (UniProt Q6XZF7) | 0.108 | -0.196 | 0.267 | -0.142
35 | DPY19L3 C36 (UniProt Q6ZPD9) | -0.143 | 0.431 | -0.115 | 0.315
36 | DMXL1 C1352 (UniProt Q9Y485) | -0.0901 | -0.262 | -0.303 | -0.248
37 | DIAPH2 C182 (UniProt O60879) | 0.129 | 0.15 | -0.233 | 0.0236
38 | DNAL1 C50 (UniProt Q4LDG9) | 0.242 | 0.219 | -0.155 | -0.261
39 | DLC1 C1504 (UniProt Q96QB1) | -0.32 | -0.0682 | -0.264 | 0.111
40 | DHX40 C641 (UniProt Q8IX18) | -0.00604 | 0.0882 | -0.0853 | 0.11
41 | DEPDC1B C59 (UniProt Q8WUY9) | 0.134 | -0.22 | -0.254 | -0.0581
42 | DHX29 C784 (UniProt Q7Z478) | -0.23 | 0.0227 | 0.0301 | 0.0859
43 | DOCK11 C1204 | 0.026 | -0.0201 | 0.065 | -0.153

From the supplement of paper PMC11732987, “Enantioselective OTUD7B fragment discovery through chemoproteomics screening and high-throughput optimisation” (Communications Chemistry, 2025)
